The experiment relates to E. coli. Put plainly: Colony-forming unit (CFU) tests of antibiotic-treated cultures. Type of experiment: cell-based. The settings on record: E. coli cultures plated at various dilutions.

Take `Nc1ccc(S(N)(=O)=O)cc1` [Sulfanilamide]: the “toxicity by CFU assay” value was “no toxicity by CFU assay”.

Values taken from patent US6811990B1, “Methods and compositions for coupled luminescent assays” (priority 2001, dated 2004).
